HELM strings list residues between dots; [ac] is acetyl, [am] amide, other brackets name non-standard units.
experiment: general procedure: Fmoc solid-phase peptide synthesis; Rink amide resin; Oxyma/DIC (double coupling); HATU/DIPEA for Cym2 or CF coupling; settings: whole synthesis, analytical HPLC

Substance	purity (crude or final not stated) [%]
Cym2-GFLGLRKRLRKFRNKIKEK-NH2 Cym2-GFLGLRKRLRKFRNKIKEK	>90
Cym2-GFLGLRKRLRKFRNKIKEK-NH2 GLRKRLRKFRNKIKEK	>95
PEPTIDE1{K.L.A.K.L.A.K.K.L.A.K.L.A.K.G.F.L.G.L.R.K.R.L.R.K.F.R.N.K.I.K.E.K.[am]}|PEPTIDE2{G.L.R.K.R.L.R.K.F.R.N.K.I.K.E.K}$PEPTIDE1,PEPTIDE2,21:R3-16:R2$$$V2.0	>99
PEPTIDE1{[Cbl].G.F.L.G.L.R.K.R.L.R.K.F.R.N.K.I.K.E.K.[am]}|PEPTIDE2{[Cbl].G.F.L.G.L.R.K.R.L.R.K.F.R.N.K.I.K.E.K}$PEPTIDE1,PEPTIDE2,8:R3-20:R2$$$V2.0	>95
